Measurements reported in PubChem BioAssay AID504791 (Drosophila RNAi Screening Center, 2011)
The deposit covers about 23,000 reagents; below is an unselected part of those with a known target gene and a result. Over the whole deposit, 199 (0.86%) were called active. 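Plate-scaled ratios behind the calls are not deposited; printed light signals are raw; many rows marked increased or decreased are still called inactive.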 Names joined by + are all predicted targets of the reagent.

- Purpose: 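Genes of the fly required for silencing by miRNA, siRNA or endo-siRNA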 (primary screen)
- Cell system: Drosophila S2-derived reporter cells
- Knock-down reagent: long dsRNA against Drosophila genes, about 150-250 ng dsRNA per well (siRNA assay); about 80-120 ng (miRNA assay)
- Duration: about 5 days (siRNA assay); about 4 days (miRNA assay)
- Challenge: copper sulfate induction of reporters: 25 µM (siRNA assay); 200 mM stated (miRNA assay), 1-2 days before reading
- Measurement: 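Dual luciferase assay: Renilla to firefly signal ratio in each well, scaled to the mean ratio of its plate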
- Scale: siRNA reporter hit score: higher = 3 marks a strong hit with raised ratio; -3 a strong hit with lowered ratio
- Active means: 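a well was a first-pass pick when its plate-scaled ratio rose above 1.5 (siRNA assay) or 1.6 (miRNA assay), or dropped below 0.6; a gene counted only if two separate dsRNAs agreed on retest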

target,amplicon,siRNA reporter hit score,stable siRNA reporter change,miRNA reporter change,"stable assay Renilla, run 1 (luminescence)","stable assay firefly, run 1 (luminescence)",activity call
HisT,DRSC05051,,,,5376,4.55e5,inactive
HisT,DRSC05052,,,,5456,4.68e5,inactive
HisT,DRSC06405,,,,8406,5.40e5,inactive
CG16800,DRSC02518,,,,6662,3.14e5,inactive
pippin,DRSC04489,,,,27997,1.20e6,inactive
CG33342,DRSC13662,,,,6072,4.02e5,inactive
CG14346,DRSC00376,,,,7000,3.37e5,inactive
CG7335,DRSC10816,,,,7634,5.08e5,inactive
Wnk,DRSC11813,,,,4423,2.34e5,inactive
RpL22,DRSC18707,,reporter ratio raised past the hit cutoff,,5007,2.82e5,active
RpL22,DRSC22819,,,,3075,2.61e5,inactive
sl,DRSC20377,,,,6895,5.11e5,inactive
sl,DRSC21782,,,,9145,4.25e5,inactive
su(sable),DRSC18839,,reporter ratio raised past the hit cutoff,reporter ratio raised past the hit cutoff,9525,2.37e5,active
Pfk,DRSC07506,,,,7924,3.28e5,inactive
CG11619,DRSC09849,,,,7384,5.08e5,inactive
Pex12,DRSC00622,,,,7649,3.69e5,inactive
be,DRSC19607,,,,7170,5.09e5,inactive
be,DRSC19944,,,,3547,2.89e5,inactive
be,DRSC19945,,,,4275,2.81e5,inactive
CG13217,DRSC06339,,,,6151,4.69e5,inactive
Socs36E,DRSC02455,,,,6518,1.31e6,inactive
mei-S332,DRSC04704,,,,6758,6.92e5,inactive
Kdm5,DRSC03133,,,,20722,4.43e5,inactive
kdn,DRSC18328,,,,6340,3.31e5,inactive
Trpgamma,DRSC03626,,,,7595,4.63e5,inactive
nemy,DRSC05357,,,,6204,4.67e5,inactive
nemy,DRSC07262,,reporter ratio lowered past the hit cutoff,,4343,5.40e5,inactive
CG14860,DRSC14983,,,,6710,4.56e5,inactive
Cyt-c-p,DRSC03310,,,,7419,5.07e5,inactive
CG4053,DRSC15538,,,,2972,2.44e5,inactive
CG17486,DRSC07752,,,,7433,2.96e5,inactive
Mmp1,DRSC04493,,,,6152,3.10e5,inactive
Akap200,DRSC01864,,,,11881,7.57e5,inactive
CAH7,DRSC15524,,,,6046,4.08e5,inactive
Mst98Ca,DRSC16749,,,,4127,3.32e5,inactive
nerfin-1,DRSC08729,,,,6071,4.37e5,inactive
CG7164,DRSC03018,,,,6891,4.55e5,inactive
NtR,DRSC04628,,,,6771,3.29e5,inactive
CG10621,DRSC02078,,,,6807,3.99e5,inactive
CG9932,DRSC03275,,,,6219,3.59e5,inactive
CG34244,DRSC09304,,,,5611,4.33e5,inactive
MED15,DRSC00267,-3,,reporter ratio raised past the hit cutoff,11477,2.48e5,inactive
Sox102F,DRSC17204,,,,7156,3.07e5,inactive
Top2,DRSC03459,,,,8839,5.55e5,inactive
CG17764,DRSC18135,,,,5416,2.27e5,inactive
CG17764,DRSC23055,,,,4323,3.07e5,inactive
CG14570,DRSC11731,,,,7842,4.26e5,inactive
plh,DRSC12294,,,,7211,4.09e5,inactive
zip,DRSC04725,,,,4048,3.24e5,inactive
zip,DRSC22489,,,,3407,3.03e5,inactive
Sol1,DRSC15263,,,,7195,3.70e5,inactive
Sol1,DRSC15271,,,,6176,3.38e5,inactive
Sol1,DRSC15681,,,,6975,4.53e5,inactive
mxc,DRSC17819,,,,3435,3.72e5,inactive
kat80,DRSC20344,,,,6012,3.93e5,inactive
kat80,DRSC20345,,,,4807,3.82e5,inactive
CG42795,DRSC12772,,,,8370,5.74e5,inactive
CG42795,DRSC15533,,,,7322,3.38e5,inactive
CG10597,DRSC19357,,,,5610,4.72e5,inactive
CR31822,DRSC01510,,,,5000,3.42e5,inactive
Keap1,DRSC15528,,,,9409,3.43e5,inactive
CG9970,DRSC08644,,,,6162,3.35e5,inactive
CG14406,DRSC19592,,,,5240,4.37e5,inactive
CG17085 (retired record),DRSC02565,,,,7743,5.28e5,inactive
CG17085 (retired record),DRSC02566,,,,7202,4.49e5,inactive
RhoGAP93B,DRSC15488,,,,7822,4.19e5,inactive
Aptx,DRSC15768,,,,9853,5.14e5,inactive
Fancd2,DRSC15208,,,,6998,3.38e5,inactive
Fancd2,DRSC22763,,,,3723,3.72e5,inactive
eIF3f2,DRSC04903,,,,7910,5.75e5,inactive
CG3270,DRSC04988,,,,25343,1.07e6,inactive
r-cup,DRSC20475,,,,6003,2.89e5,inactive
Rpp30,DRSC00320,,,,9902,2.32e5,inactive
laza,DRSC11661,,,,10528,4.24e5,inactive
laza,DRSC23330,,,,3739,3.25e5,inactive
ImpE3,DRSC16716,,,,5852,3.50e5,inactive
CG12818,DRSC14556,,,,6143,3.91e5,inactive
Gad1,DRSC08661,,,,8210,5.14e5,inactive
grk,DRSC03540,,,,33231,6.88e5,inactive
CG14190,DRSC19545,,,,5930,3.95e5,inactive
mEFTu1,DRSC06959,,,,7184,4.69e5,inactive
Grip84,DRSC20248,,,,8390,4.89e5,inactive
Grip84,DRSC26202,,,reporter ratio raised past the hit cutoff,,,inactive
eIF3e,DRSC11199,,,,5071,3.45e5,inactive
Megf8,DRSC03058,,,,13698,3.26e5,inactive
Ugt303B3,DRSC14199,,,,8119,3.38e5,inactive
KP78b + KP78a,DRSC23338,,reporter ratio lowered past the hit cutoff,,2328,3.11e5,inactive
KP78b + KP78a,DRSC23341,,,,4687,2.56e5,inactive
CG10182,DRSC14202,,,,6055,3.71e5,inactive
CG4313,DRSC18514,,,,8099,4.46e5,inactive
pnt,DRSC17028,,,,4304,1.67e5,inactive
pnt,DRSC23204,,,,1760,1.90e5,inactive
CecA2,DRSC16604,,,,6927,5.30e5,inactive
Obp56f,DRSC22270,,,,10031,7.58e5,inactive
CG13717 (retired record),DRSC08116,,,,2568,3.55e5,inactive
CG13717 (retired record),DRSC08324,,,,5611,4.01e5,inactive
CG13717 (retired record),DRSC08326,,,,5143,2.33e5,inactive
CG13717 (retired record),DRSC21337,,,,9941,4.72e5,inactive
CG13717 (retired record),DRSC23087,,,,7211,4.22e5,inactive
Orct,DRSC16777,,,,8878,3.43e5,inactive
Ir56c,DRSC06544,,,,6000,3.58e5,inactive
tyn,DRSC20652,,,,4335,3.13e5,inactive
CG5902,DRSC15912,,,,8002,3.94e5,inactive
rush,DRSC18568,,reporter ratio lowered past the hit cutoff,,5947,5.44e5,inactive
CG9067,DRSC07328,,,,6083,3.49e5,inactive

Laid out differently: results already given
Pfk [DRSC07506] → stable assay Renilla, run 1 (luminescence): 7924; stable assay firefly, run 1 (luminescence): 3.28e5; activity call: inactive
CG11619 [DRSC09849] → stable assay Renilla, run 1 (luminescence): 7384; stable assay firefly, run 1 (luminescence): 5.08e5; activity call: inactive
Pex12 [DRSC00622] → stable assay Renilla, run 1 (luminescence): 7649; stable assay firefly, run 1 (luminescence): 3.69e5; activity call: inactive
be [DRSC19607] → stable assay Renilla, run 1 (luminescence): 7170; stable assay firefly, run 1 (luminescence): 5.09e5; activity call: inactive
be [DRSC19944] → stable assay Renilla, run 1 (luminescence): 3547; stable assay firefly, run 1 (luminescence): 2.89e5; activity call: inactive
be [DRSC19945] → stable assay Renilla, run 1 (luminescence): 4275; stable assay firefly, run 1 (luminescence): 2.81e5; activity call: inactive
CG13217 [DRSC06339] → stable assay Renilla, run 1 (luminescence): 6151; stable assay firefly, run 1 (luminescence): 4.69e5; activity call: inactive
Socs36E [DRSC02455] → stable assay Renilla, run 1 (luminescence): 6518; stable assay firefly, run 1 (luminescence): 1.31e6; activity call: inactive
mei-S332 [DRSC04704] → stable assay Renilla, run 1 (luminescence): 6758; stable assay firefly, run 1 (luminescence): 6.92e5; activity call: inactive
Kdm5 [DRSC03133] → stable assay Renilla, run 1 (luminescence): 20722; stable assay firefly, run 1 (luminescence): 4.43e5; activity call: inactive
